The results in this text go back to PMC4731865 (Nature chemical biology, 2015).

The test system of assay [1] is postfusion RSV F. The conditions noted are these: ITC, control. A general note: ITC needs no label: the signal is the heat of the interaction.
The target in assay [2] is prefusion RSV F (DS-Cav1) (Human respiratory syncytial virus A, UniProt P03420, I379V/M447V/S155C/S190F/S290C/V207L). It is filed as binding, RSV strain A2. The conditions noted are these: ITC, 25 °C, PBS 1% DMSO; mean ± s.d. (n = 2).

In the case of `O=c1n(Cc2nc3ccccc3n2CCCCO)c2cnccc2n1C1CC1` [BMS-433771], the “Binding to postfusion RSV F” value in assay [1] is “no binding was detected”. Further, the “Stoichiometry of fusion inhibitor to trimeric prefusion RSV F” value in assay [2] came to 0.8 ± 0.21.
